The values that follow come from article PMC10298287.

Among the targets are PpIDD2 (P. patens); PpIDD4 (P. patens); PpIDD1 (P. patens); PpIDD3 (P. patens).
What all share (assay): two-hybrid; IDD baits in pGBT9, GRAS preys in pGAD424, yeast strain PJ69-4A; serial dilutions spotted on -LW and -LWH, 3-amino-1,2,4-triazole added as needed; 3 days at 30 °C
The target of assay [1] is T1, AtIDD10 (JACKDAW) (Arabidopsis) (UniProt Q700D2).
T1 sequence: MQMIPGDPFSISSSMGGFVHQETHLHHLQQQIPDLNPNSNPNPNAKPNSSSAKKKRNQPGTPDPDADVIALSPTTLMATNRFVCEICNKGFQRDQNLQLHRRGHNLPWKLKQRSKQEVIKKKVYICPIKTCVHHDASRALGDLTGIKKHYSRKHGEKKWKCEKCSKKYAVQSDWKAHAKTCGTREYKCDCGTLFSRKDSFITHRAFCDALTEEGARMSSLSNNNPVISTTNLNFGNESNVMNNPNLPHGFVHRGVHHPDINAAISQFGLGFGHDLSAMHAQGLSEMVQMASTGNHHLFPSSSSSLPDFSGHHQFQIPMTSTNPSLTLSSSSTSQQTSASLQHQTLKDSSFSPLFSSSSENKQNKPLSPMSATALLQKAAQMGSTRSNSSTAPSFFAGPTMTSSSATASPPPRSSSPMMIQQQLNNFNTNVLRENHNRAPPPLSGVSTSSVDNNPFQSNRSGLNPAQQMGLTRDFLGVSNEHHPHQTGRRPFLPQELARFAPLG

No constants are given. Whether binding was seen depends on the method and setting. For some of these results: A result given as binding can be weak or reduced; the word gives no strength.

On to PpDELLAb (P. patens), for which the binding result in assay [1] is reported as “no binding”. As for PpDELLAa (P. patens), the binding result in assay [1] is on record as “no binding”. On the same count and under the same terms, the entry for PpSHR2 (P. patens) is “binds”.

B1: AtSHR (protein, UniProt Q9SZF7 1-531)
chain: MDTLFRLVSLQQQQQSDSIITNQSSLSRTSTTTTGSPQTAYHYNFPQNDVVEECFNFFMDEEDLSSSSSHHNHHNHNNPNTYYSPFTTPTQYHPATSSTPSSTAAAAALASPYSSSGHHNDPSAFSIPQTPPSFDFSANAKWADSVLLEAARAFSDKDTARAQQILWTLNELSSPYGDTEQKLASYFLQALFNRMTGSGERCYRTMVTAAATEKTCSFESTRKTVLKFQEVSPWATFGHVAANGAILEAVDGEAKIHIVDISSTFCTQWPTLLEALATRSDDTPHLRLTTVVVANKFVNDQTASHRMMKEIGNRMEKFARLMGVPFKFNIIHHVGDLSEFDLNELDVKPDEVLAINCVGAMHGIASRGSPRDAVISSFRRLRPRIVTVVEEEADLVGEEEGGFDDEFLRGFGECLRWFRVCFESWEESFPRTSNERLMLERAAGRAIVDLVACEPSDSTERRETARKWSRRMRNSGFGAVGYSDEVADDVRALLRRYKEGVWSMVQCPDAAGIFLCWRDQPVVWASAWRPT
Take B1: the binding result in the assay with PpIDD2 (P. patens), with PpIDD4 (P. patens), with PpIDD1 (P. patens) and in the assay with PpIDD3 (P. patens) was “no binding” each time.
